# These are yes or no findings as the source states them, for the method shown. Binding seen in cells or lysates may run through a third protein. Some binding calls cover weakened binding; strength is not graded here.
# By UniProt entry, the sequences of proteins in these tests, tags left out.
# UniProt Q91YH6: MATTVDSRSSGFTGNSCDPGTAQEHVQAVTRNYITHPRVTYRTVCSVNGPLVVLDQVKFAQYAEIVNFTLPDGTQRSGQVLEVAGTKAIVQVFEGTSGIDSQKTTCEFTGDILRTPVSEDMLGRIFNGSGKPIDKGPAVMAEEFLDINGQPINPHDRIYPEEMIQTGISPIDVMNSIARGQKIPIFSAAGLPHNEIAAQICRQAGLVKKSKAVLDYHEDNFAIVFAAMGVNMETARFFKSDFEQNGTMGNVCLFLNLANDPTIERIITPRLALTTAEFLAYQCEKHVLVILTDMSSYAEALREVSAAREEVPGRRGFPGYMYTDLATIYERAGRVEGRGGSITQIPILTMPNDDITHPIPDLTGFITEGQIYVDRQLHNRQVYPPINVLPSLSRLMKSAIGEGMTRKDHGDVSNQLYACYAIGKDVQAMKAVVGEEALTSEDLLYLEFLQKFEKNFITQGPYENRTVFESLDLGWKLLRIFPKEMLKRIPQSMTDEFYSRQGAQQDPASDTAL
# T1: B2 subunit of V-ATPase (mouse (endogenous in kidney)), P62814
# T1 chain: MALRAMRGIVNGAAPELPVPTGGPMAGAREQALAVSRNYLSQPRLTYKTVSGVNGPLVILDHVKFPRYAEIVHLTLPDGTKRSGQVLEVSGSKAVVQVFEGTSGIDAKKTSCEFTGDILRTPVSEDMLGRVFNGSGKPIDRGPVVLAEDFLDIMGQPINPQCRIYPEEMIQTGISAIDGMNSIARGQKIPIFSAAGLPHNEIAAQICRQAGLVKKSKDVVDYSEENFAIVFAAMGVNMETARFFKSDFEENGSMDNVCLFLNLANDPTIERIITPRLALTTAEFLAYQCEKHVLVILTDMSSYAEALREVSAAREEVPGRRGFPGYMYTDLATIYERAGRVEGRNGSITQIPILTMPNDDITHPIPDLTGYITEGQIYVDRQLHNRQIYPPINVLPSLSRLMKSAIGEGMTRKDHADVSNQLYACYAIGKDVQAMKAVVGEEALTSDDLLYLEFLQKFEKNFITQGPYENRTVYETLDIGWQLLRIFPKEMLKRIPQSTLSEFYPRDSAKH
# Tests used:
# [1] = molecular target: B1 subunit of V-ATPase (mouse (endogenous in kidney)) (UniProt Q91YH6); experiment: co-IP; anti-B1 or anti-B2 antibodies with mouse kidney lysate mixed with lysate of HEK293T cells overexpressing Tldc1 or Tldc2, protein A agarose; western blot with anti-Tldc1 or anti-HA
# [2] = molecular target: B2 subunit of V-ATPase (mouse (endogenous in kidney)) (UniProt P62814); experiment: as above
# [3] = molecular target: B1 subunit of V-ATPase (mouse (endogenous in kidney)) (UniProt Q91YH6); experiment: co-IP; anti-B1 or anti-B2 antibodies with 0.5 mg mouse kidney lysate, protein A agarose; western blot with anti-Tbc1d24, anti-B1 and anti-B2
# [4] = molecular target: T1, B2 subunit of V-ATPase (mouse …); experiment: as above; settings: remark: other sources report otherwise
molecule,measurement,setting,value
"HA-tagged full-length mouse Tldc1, overexpressed in HEK293T cells (from UniProt Q8K0P3-1 1-455)",binding,[1],binds
same,binding,[2],binds
"endogenous kidney Tbc1d24 (protein, UniProt Q3UUG6 1-561) MDPPGYNCFVDKDKMDASIQDLGPKELNCTELQELKQLARQGYWAQSHTLRGKVYQRLIRDIPCRTVTPDASVYSDIVGKIVGKHSSSSLPLPEFVDNTQVPTYCLNTRGEGAVRKILLCIANQFPDISFCPALPAVVALLLHYSIDEAECFEKACRILSCNDPTKKLIDQSFLAFESSCMTFGDLVNKYCQAAHKLMVAVSEDVLQVYSDWQRWLFGELPLNYFARVFDVFLVEGYKVLYRVALAILKFFHKVRAGQPLESDNVKQDIRMFVKDIAKTVSPEKLLEKAFAIRLFSRKEIQLLQMANEKALRQKGITVKQKSVSLSKRQFVHLAVHAENFHSEIVSVKEMRDIWSWIPERFALCQPLLLFSSLQHGYSLSRFYFQCEGHEPTLLLIKTTQKEVCGAYLSTDWSERTKFGGKLGFFGTGECFVFRLQPEVQRYEWVVIKHPELTKATSLKSSEAAGSSSLISHCSSDPADRLSPFLAARHFNLPSKTESMFMAGGNDCLIIGGGGGQALYVDGDLNRGRTGHCDTFNNQPLCSENFLIAAVEAWGFQDPDTE",binding,[3],binds
"endogenous kidney Tbc1d24, Q3UUG6 1-561 (protein) MDPPGYNCFVDKDKMDASIQDLGPKELNCTELQELKQLARQGYWAQSHTLRGKVYQRLIRDIPCRTVTPDASVYSDIVGKIVGKHSSSSLPLPEFVDNTQVPTYCLNTRGEGAVRKILLCIANQFPDISFCPALPAVVALLLHYSIDEAECFEKACRILSCNDPTKKLIDQSFLAFESSCMTFGDLVNKYCQAAHKLMVAVSEDVLQVYSDWQRWLFGELPLNYFARVFDVFLVEGYKVLYRVALAILKFFHKVRAGQPLESDNVKQDIRMFVKDIAKTVSPEKLLEKAFAIRLFSRKEIQLLQMANEKALRQKGITVKQKSVSLSKRQFVHLAVHAENFHSEIVSVKEMRDIWSWIPERFALCQPLLLFSSLQHGYSLSRFYFQCEGHEPTLLLIKTTQKEVCGAYLSTDWSERTKFGGKLGFFGTGECFVFRLQPEVQRYEWVVIKHPELTKATSLKSSEAAGSSSLISHCSSDPADRLSPFLAARHFNLPSKTESMFMAGGNDCLIIGGGGGQALYVDGDLNRGRTGHCDTFNNQPLCSENFLIAAVEAWGFQDPDTE",binding,[4],no binding

# Reference: article PMC8608904
